The test system of this data set is RNAP holoenzyme (β′/β/α^I/α^II/ω/σ^70). The experiment in a line: FRET probe-probe distances in RNAP holoenzyme with and without Lpm. More on the design: species or system Escherichia coli. Conditions: between α^II residue 235 and σ residues 527 and 537.

This is an account of results in patent US8206898B2, “RNA exit channel: target and method for inhibition of bacterial RNA polymerase” (priority 2003, dated 2012).

For lipiarmycin [Lpm], the “decrease in distance on binding of Lpm” value is greater than 10 Å.
